Measured values: PubChem BioAssay AID1439 (NMMLSC, 2008)
In all, about 220,000 compounds went through this assay and about 770 (0.35%) were called active. This list was built around the results that the source calls inconclusive (neither active nor inactive); the mix of calls is not that of the screen. No stated cut-off is given here; in the data, active means binding response below about 49% or above about 150%; inconclusive means no clear call, values can overlap the other calls; inactive means in between.

Sequences of proteins named here, by UniProt entry; tags and fusion partners are left off.
UniProt P09471, whole entry, looked up: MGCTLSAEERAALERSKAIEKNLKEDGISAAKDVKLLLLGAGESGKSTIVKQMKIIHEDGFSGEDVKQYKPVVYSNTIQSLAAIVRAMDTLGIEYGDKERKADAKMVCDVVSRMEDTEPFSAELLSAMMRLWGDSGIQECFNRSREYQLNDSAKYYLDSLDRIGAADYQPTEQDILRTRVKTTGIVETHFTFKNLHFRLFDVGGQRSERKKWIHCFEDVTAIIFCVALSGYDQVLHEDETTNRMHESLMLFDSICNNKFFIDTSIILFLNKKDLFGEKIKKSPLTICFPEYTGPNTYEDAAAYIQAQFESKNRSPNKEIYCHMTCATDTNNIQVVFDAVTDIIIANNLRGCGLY

Target: Guanine nucleotide-binding protein G(o) subunit alpha (Homo sapiens) (UniProt P09471)
Assay: RGS7-Galphao binding modulators, primary screen, biochemical, multiplexed bead flow cytometry (AID 1439);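 further: fluorescent Galphao held in activated GDP-AlF4 state binding bead-coupled RGS7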
Details: at 10 µM, actives lie on both sides

Structure (SMILES) | binding response (% of control)
O=C(c1ccco1)N1CCN(S(=O)(=O)/C=C/c2ccccc2)CC1 | inconclusive: 97.5%
O=C(N/N=C/C(Br)=C\c1ccccc1)c1ccco1 | inconclusive: 104%
CCCCSc1cc(C)nc(N)n1 | inconclusive: 57.6%
Cc1ccc(NC(=S)N(CCN(C)C)Cc2cccs2)cc1C | inconclusive: 113%
COc1ccc(C2(O)CCN(CC(=O)Nc3nc(-c4ccccc4)cs3)CC2)cc1 | inactive: 102%
CNC(=S)NNC(=O)c1cn(C)nc1C | inconclusive: 70.2%
Cc1nc2ccc(NC(=S)N3CCOCC3)cc2nc1C | inactive: 90.6%
CCOC(=O)Cc1csc(NC(=O)CN2C(=O)c3ccccc3C2=O)n1 | inconclusive: 101%
Cc1ccc(S(=O)(=O)N(C)C)cc1NC(=O)c1ccc2ccccc2n1 | inconclusive: 81.5%
Cc1ccc(NC2CC(C)NC(=S)N2)cc1 (centres undefined) | inconclusive: 132%
CC(C)C1CC(CCN)(c2ccccc2)CCO1 (centres undefined) | inconclusive: 24.8%
CCS(=O)(=O)Nc1ccccc1C(N)=O | inconclusive: 155%
COc1ccc(NC(=O)Nc2nc(C)cc(C)n2)c(OC)c1 | inconclusive: 144%
CC1(C)CNc2cc(N)ccc2S1 | inconclusive: 85.6%
Cc1nnc(SCC(=O)NNC(=O)CC#N)[nH]c1=O | inactive: 102%
Cc1ccc(CN2CCN(C/C=C/c3ccc(F)cc3)CC2CCO)o1 (centres undefined) | inactive: 102%
COc1cc(-c2nc(C)c(C(C)=O)n2O)ccc1OCC(=O)Nc1ccc(F)cc1 | inactive: 97.7%
COc1ccc(-c2cc(C(=O)Nc3cc(OC)cc(C(=O)Nc4cccc(C(F)(F)F)c4)c3)[nH]n2)cc1 | inconclusive: 68.9%
CC1C2CC(CC1(C)C)N(C(=O)Nc1ccc3nccnc3c1)C2 (centres undefined) | inactive: 102%
COC(=O)c1cccc(NC(=O)c2onc3c2CCCC3)c1 | inactive: 101%
CCCCCCCNc1nc(Cl)nc(NCCO)n1 | inactive: 93.6%
COc1ccc(OC)c(NC(=O)c2ccc(CSc3ncccn3)cc2)c1 | inactive: 104%
O=C(Nc1ccccc1Cl)N1CCCN(c2nc(-c3ccccc3)ns2)CC1 | inconclusive: 105%
COC(=O)/C(C#N)=C/N(C)C | inconclusive: 94.5%

Structure (SMILES) | binding response (% of control)
CC1(C)CC(=O)C(N=Nc2cccc(S(=O)(=O)N3CCOCC3)c2)=C(O)C1 | inconclusive: 198%
CSc1cccc(NC(=O)C(=O)NCc2ccccc2)c1 | inconclusive: 24.2%
CCCCCc1n[nH]c2c1CCCC2 | inconclusive: -29.1%
C[C@@H]1NC(=O)[C@H](CCC(=O)O)NC(=O)c2cc([N+](=O)[O-])cc(F)c2NCCC[C@@H](C(N)=O)NC1=O | inactive: 98.3%
O=C(NC1CCCCC1)C(=S)N1CCCC1 | inconclusive: 107%
Cc1csc2ncnc(N3CCN(C(=S)Nc4ccc(F)cc4F)CC3)c12 | inconclusive: 29.3%
COc1ccccc1-n1c(-c2ccccc2)n[nH]c1=S | active: 159% [activator]
COc1ccc(/C=C/C(=O)N2CCN(C)CC2)cc1S(=O)(=O)N1CCCCC1 | inconclusive: 107%
FC(F)(Cl)c1nnc2ccc(Sc3ccccn3)nn12 | inactive: 106%
CC1(C)CC(N(Cc2ccc(F)cc2)C(=O)c2ccc(F)cc2)CCO1 (centres undefined) | inconclusive: 56.7%
CCN(CC)S(=O)(=O)c1ccc(Oc2ccccc2OC)cc1 | inconclusive: 74.5%
Cc1cc2cc(CNC(=O)CCC(=O)O)ccc2n1C | inconclusive: 96.8%
Cc1cc(N/N=C/c2ccncc2)c([N+](=O)[O-])cc1[N+](=O)[O-] | inconclusive: 105%
Cc1nnc2n1N=C(c1ccc3c(c1)NC(=O)CO3)CS2 | inconclusive: 115%
NCc1oc(-c2ccccc2)cc1C(=O)O | inactive: 106%
CSc1nc(O)c(Nc2cccc(Cl)c2)c(=O)[nH]1 | inconclusive: 90%
Cc1cccc(CN2CCN(Cc3nc4c(s3)CCCC4)CC2CCO)n1 (centres undefined) | inactive: 98.7%
CCN(CC)c1ccc(C=C2C(=O)OC3(CCCCC3)OC2=O)cc1 | inactive: 101%
CN1C(C(=O)NCCc2cccs2)CC2Cn3c(nc4ccccc43)C21 (centres undefined) | inconclusive: 117%
Cc1noc(C)c1S(=O)(=O)Nc1ccc(O)c2c(=O)cc(-c3ccccc3Cl)oc12 | inconclusive: 93%
CCCCNC(=O)NCCN1CCOCC1 | inconclusive: 244%
CC1(OC(=O)C2CCCC2)C(=O)C=C2C=C(c3ccsc3)N(C(CO)CO)C=C2C1=O (centres undefined) | inconclusive: 106%
O=C1C2C3C=CC(C2C(=O)N1c1nccs1)C1C(=O)N(c2nccs2)C(=O)C31 (centres undefined) | inconclusive: 79.5%
CC(=O)c1ccc(OCc2ccc(C(=O)c3ccccc3)cc2)cc1 | inconclusive: 106%

Structure (SMILES) | binding response (% of control)
CC(=O)c1cccc(NC(=O)CN(C)Cc2ccc(OC(F)F)cc2)c1 | inconclusive: 89.6%
COc1ccc(CCn2c(O)c(C=Nc3cccc(F)c3)c(=O)[nH]c2=O)cc1OC | inconclusive: 91.5%
O=S(=O)(NCCOc1ccccc1)c1ccc2ccccc2c1 | inactive: 89.3%
COc1ccc(/C=C/C(=O)NC(=S)NNC(=O)c2cc(OC)c(OC)c(OC)c2)cc1 | inconclusive: 112%
COc1ccc(CC(=O)NCc2nnc(SCC(=O)Nc3cccc(F)c3)n2C)cc1 | inconclusive: 119%
O=C(NC1=NCCS1)c1ccccc1OCc1ccccc1Cl | inactive: 102%
COc1ccc(NC(=O)c2cccs2)cn1 | inconclusive: -5.25%
CCOC(=O)C(=O)N(Nc1ccccc1C)c1ccccc1C | inactive: 99.5%
Cc1ccc(/C=C2/SC(=S)N(c3ccc(S(=O)(=O)Nc4nccs4)cc3)C2=O)cc1 | inconclusive: 99.5%
Cc1ccc(C(=O)NCC(=O)Nc2cccc(C(F)(F)F)c2)cc1 | inactive: 97.8%
CC1CN(C(=O)c2ccc(COc3ccccc3Br)o2)CC(C)O1 (centres undefined) | inconclusive: 101%
CC(C)c1onc(C(=O)N2CCC(C(N)=O)CC2)c1[N+](=O)[O-] | inconclusive: 82.7%
Cc1ccc(NS(=O)(=O)c2cccc(C(=O)NCCc3c[nH]c4ccccc34)c2)c(C)c1 | inactive: 101%
Nc1nc(N2CCN(Cc3ccccc3)CC2)n[nH]1 | inactive: 100%
O=C(NNC(=S)NCc1ccccc1)c1ccc(Br)o1 | inconclusive: 106%
COc1ccc(NC(=O)C(=O)N/N=C(\C)CC(=O)Nc2ccccn2)c(OC)c1 | inconclusive: 54.2%
Nc1c(NCc2ccccc2)c(=O)c1=O | inconclusive: 83.3%
COc1ccc(C2c3sc(=O)[nH]c3SCC2C(N)=O)cc1 (centres undefined) | inconclusive: 106%
COC(=O)c1n[nH]n(-c2cc(Cl)cc(Cl)c2)c1=O | inconclusive: 44.4%
Cc1onc(-c2c(Cl)cccc2Cl)c1C(=O)N=C(N)N1CCOCC1 | inconclusive: 37.5%
CCc1ccc(C(=O)Nc2cc(C)ccc2F)s1 | inconclusive: 120%
Cc1ccc(C2C3C(=O)N(c4ccccc4)C(=O)C3N3CCCN23)cc1 (centres undefined) | inconclusive: 120%
O=C(O)CCCn1c(O)c(C=C2N=c3ccccc3=N2)sc1=S | inconclusive: 120%
COc1ccccc1CNC(=O)CCSCc1cccc(Cl)c1 | inactive: 98%

In a second layout: three of the compounds above.
Structure (SMILES),binding response (% of control)
COc1ccccc1-n1c(-c2ccccc2)n[nH]c1=S,active: 159% [activator]
COc1ccc(/C=C/C(=O)N2CCN(C)CC2)cc1S(=O)(=O)N1CCCCC1,inconclusive: 107%
FC(F)(Cl)c1nnc2ccc(Sc3ccccn3)nn12,inactive: 106%

More results follow.

Structure (SMILES) | binding response (% of control)
COc1ccc(Cl)cc1N(CC(=O)N/N=C/c1ccc(OCC(N)=O)cc1)S(C)(=O)=O | inconclusive: 107%
O=C(CSc1ccc(Cl)cc1)Nc1ccc(C2SCCS2)cc1 | inconclusive: 2.52%
COCc1cc(=O)[nH]c(SCCS(=O)(=O)c2ccc(Cl)cc2Cl)n1 | inconclusive: -51.4%
NCCSc1c(-c2ccc(F)cc2)[nH]c2ccccc12 | inconclusive: -256%
O=C(Nc1nnc(Cc2ccc([N+](=O)[O-])cc2)s1)c1ccc2c(c1)OCO2 | inconclusive: 94.8%
CC(C)c1cc(-c2cc(-c3ccc(Cl)cc3)on2)nc(NC2CCCC2)n1 | inconclusive: 95.2%
Cc1csc2c(N3CCN(C(=O)NC(C)(C)C)CC3)ncnc12 | inconclusive: 40.2%
O=C(Nc1ccc2c(c1)OCCO2)c1coc2ccccc2c1=O | inactive: 97.2%
O=C(OCCCCOC(=O)c1ccccc1)c1ccccc1 | inconclusive: 80.5%
COC(=O)c1ccccc1NC(=O)CSc1nc(O)cc(=O)n1C1CCCC1 | inactive: 107%
CC(=O)c1c(C)c(C)c2n1CCn1c(C)ccc1-2 | inconclusive: 114%
O=C(/C=C/c1ccco1)N(Cc1cccc(Cl)c1)C1CCS(=O)(=O)C1 (centres undefined) | inconclusive: 84%
Cc1ccc(CN2CCN(/N=C/c3ccc(C)s3)CC2)c(C)c1 | inactive: 101%
Nc1ccc(SCC(=O)Nc2cccc([N+](=O)[O-])c2)cc1 | inconclusive: 96%
COC(=O)c1sc2cc([N+](=O)[O-])cc(SCC(C)C)c2c1N | inactive: 113%
CCOc1ccc(N2C(=O)CC(N(CCc3ccc(OC)c(OC)c3)C(=O)/C=C/C(=O)O)C2=O)cc1 (centres undefined) | inconclusive: 102%
COc1ccc(C(=O)OCC(=O)Nc2ccc([N+](=O)[O-])cc2OC)c(O)c1 | inconclusive: 103%
O=C(NCCCO)c1ccc(CSc2nc3ccccc3c(=O)[nH]2)cc1 | inconclusive: 100%
Cc1ccc(NC(=O)c2nc[nH]c2C(=O)N[C@@H](CCCCNC(=O)OC(C)(C)C)C(=O)OC(C)(C)C)cc1 | inconclusive: 94.5%
Cc1nc(-c2cccs2)sc1C(=O)NN | inconclusive: 75.1%
Cn1ncc(Cl)c1C(=O)N1CCN(C(=O)c2ccco2)CC1 | inconclusive: 139%
Cn1c(SCc2ccccn2)nc2c1c(=O)[nH]c(=O)n2C | inconclusive: 87%

Look-ups from the results shown.
Value for `CC(=O)c1c(C)c(C)c2n1CCn1c(C)ccc1-2` under binding response (% of control): inconclusive: 114%
Value for `COC(=O)c1sc2cc([N+](=O)[O-])cc(SCC(C)C)c2c1N` under binding response (% of control): inactive: 113%
